{"source": "paper doi:10.1101/031336", "experiment_in_all_cases": "co-IP", "key": {"[1]": {"molecular_target": "T1, 2xFlag-196/197AA (human) (UniProt Q9P2S5)", "T1 sequence": "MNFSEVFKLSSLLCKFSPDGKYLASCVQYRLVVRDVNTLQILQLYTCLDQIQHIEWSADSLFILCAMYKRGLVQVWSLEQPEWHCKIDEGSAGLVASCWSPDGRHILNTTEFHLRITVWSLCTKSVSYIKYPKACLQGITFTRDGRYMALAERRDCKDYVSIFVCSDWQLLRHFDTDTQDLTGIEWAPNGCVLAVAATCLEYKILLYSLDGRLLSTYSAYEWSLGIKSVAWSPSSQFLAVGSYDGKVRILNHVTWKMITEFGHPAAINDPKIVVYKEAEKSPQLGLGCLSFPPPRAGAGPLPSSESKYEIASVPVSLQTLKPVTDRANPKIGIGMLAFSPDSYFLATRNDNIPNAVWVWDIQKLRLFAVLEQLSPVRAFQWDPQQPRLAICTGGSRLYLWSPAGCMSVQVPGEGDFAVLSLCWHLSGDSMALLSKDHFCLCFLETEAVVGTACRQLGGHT"}, "[2]": {"molecular_target": "T2, 2xFlag-359/360AA (human) (UniProt Q9P2S5)", "T2 sequence": "T1 sequence with A196W, A197D, W359A, D360A"}, "[3]": {"molecular_target": "T3, 2xFlag-huWdr8 wild-type (human) (UniProt Q9P2S5)", "T3 sequence": "T1 sequence with A196W, A197D"}}, "note": "Residue numbers refer to the chain shown, from its start. Results are given in words; binding and its absence hold for the method and conditions named. Binding seen in cells or lysates may run through a third protein. For part of these data: Binding calls can cover weak binding; strength is not graded here. Tags and fused reporters may be left off the sequences shown.", "data": [{"substance": "SSX2IP", "values": [{"measurement": "binding", "setting": "[1]", "value": "no binding"}, {"measurement": "binding", "setting": "[2]", "value": "no binding"}, {"measurement": "binding", "setting": "[3]", "value": "binds"}]}]}
